No constants are given. Whether binding was seen depends on the method and setting. Some entries that bind do so weakly or less than the wild type.

Protein sequences, listed by entry. Tags and fused reporters are not part of them. Lines headed by an entry give the natural chain unless they say otherwise; changes in a name come on top. Chains listed by the source or under a name are the forms on record and can include a tag or linker.
human recombinant VEGF A subunit (FIG. 12, 191 amino acid form) (P15692, form named): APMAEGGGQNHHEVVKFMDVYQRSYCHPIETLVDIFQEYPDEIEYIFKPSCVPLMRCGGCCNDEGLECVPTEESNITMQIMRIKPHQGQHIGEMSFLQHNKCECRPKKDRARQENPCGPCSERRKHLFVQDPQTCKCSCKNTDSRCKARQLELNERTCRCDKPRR

In the assay the target is human recombinant VEGF A subunit (FIG. 12, 191 amino acid form) (human) (UniProt P15692). Description: SDS-PAGE with silver stain of purified recombinant VEGF AC from Sf9 cells; under reducing conditions splits into 25/23 kDa (VEGF A) and 20 kDa (VEGF C) bands, assigned against pure subunits and by Western analysis.

B1: human recombinant VEGF C subunit, 170 amino acid form (FIG. 10) (ligand)
chain: LPAVPPQQWALSAGNGSSEVEVVPFQEVWGRSYCRALERLVDVVSEYPSEVEHMFSPSCVSLLRCTGCCGDENLHCVPVETANVTMQLLKIRSGDRPSYVELTFSQHVRCECRPLREKMKPERRRPKGRGKRRREKQRPTDCHLCGDAVPRR
Take B1: the binding entry is “binds”.
